From the supplement of paper PMC11348887
Where a name gives a salt, the structure may show the parent alone. The list shows a part of the results. Most values lie at the level of the controls, where differences are scatter. Where a SMILES comes first, the peptide text is derived from it. Bridges are numbered along the chain shown (N, C = ends). [ ]: non-standard residue; d: D form. hArg = N=C(N)NCCCC[C@H](N)C(=O)O; Mpa = O=C(O)CCS

Tests used:
Settings in all cases: 5 µM; treatment: days 7-14 after plating, readout day 21
[1] = tested on: hPSC-derived cortical neurons (WA09); assay: nucleus area z-score vs screen plate; higher = larger nuclei (more mature)
[2] = tested on: hPSC-derived cortical neurons (WA09); assay: total neurite length per nucleus (MAP2) z-score; higher = more neurite growth
[3] = tested on: hPSC-derived cortical neurons (WA09); assay: nucleus roundness z-score vs screen plate; higher = rounder nuclei (more mature)
[4] = tested on: hPSC-derived cortical neurons (WA09); assay: KCl-induced FOS+/EGR-1+ double-positive nuclei fraction z-score (KCl minus unstimulated); higher = stronger activity-induced IEG response

| Structure (SMILES) | nucleus area z-score [1] | total neurite length per nucleus (z-score) [2] | nucleus roundness z-score [3] | KCl-induced FOS+/EGR-1+ double-positive nuclei fraction z-score [4] |
| --- | --- | --- | --- | --- |
| CN(C)C(=O)Nc1cccc(-c2ccc(N(C)C)cc2)c1 [Atglistatin] | 0.152 | 0.663 | -0.0644 | 1.27 |
| C[C@H](CCC(=O)O)[C@H]1CC[C@H]2[C@@H]3CC[C@@H]4C[C@H](O)CC[C@]4(C)[C@H]3CC[C@]12C [Lithocholic acid] | 0.28 | 1.51 | 0.299 | 0.48 |
| NCc1c[nH]c(=S)n1[C@@H]1CCc2c(F)cc(F)cc2C1 [(R)-Nepicastat HCl] | 0.643 | 0.475 | 0.817 | 0.656 |
| O=C(Nc1cc(Cl)cc2c1[nH]c1cnccc12)c1cccnc1 | 1.66 | -0.982 | -0.243 | -0.427 |
| Oc1cc2c(cc1O)C(c1ccccc1)CNCC2 (stereo not drawn) | -0.256 | 0.386 | 1.17 | 1.16 |
| O=C(O)c1ccc2c(c1)nc(Nc1cccc(Cl)c1)c1ccncc12 [CX-4945 (Silmitasertib)] | 0.00166 | 0.0507 | -1.02 | 1.15 |
| Nc1cccc2c1CN(C1CCC(=O)NC1=O)C2=O (stereo not drawn) [Lenalidomide (CC-5013)] | 1.08 | 0.161 | 0.907 | 0.802 |
| Cc1c(C(=O)N2CCOc3ccc(-c4ccc(N)nc4)cc3C2)ccc(S(C)(=O)=O)c1F | -2.14 | -0.491 | -2.73 | -0.314 |
| C[C@H]1CNCCCN1S(=O)(=O)c1cccc2cncc(F)c12 [Ripasudil (K-115) hydrochloride dihydrate] | 1.09 | -1.12 | -3.1 | 0.257 |
| Cc1ccc(-c2cc(C(F)(F)F)nn2-c2ccc(S(N)(=O)=O)cc2)cc1 [Celecoxib] | 0.05 | -0.561 | 0.197 | -0.404 |
| CC[C@H](C)C(=O)O[C@H]1C[C@H](O)C=C2C=C[C@H](C)[C@H](CC[C@@H](O)C[C@@H](O)CC(=O)O)[C@H]21 [Pravastatin sodium] | -0.206 | 0.639 | 1.06 | -2 |
| C[C@H]1[C@H](C)CC[C@]2(C(=O)O)CC[C@]3(C)C(=CC[C@@H]4[C@@]5(C)C[C@@H](O)[C@H](O)[C@@](C)(CO)[C@@H]5CC[C@]43C)[C@H]12 [Asiatic Acid] | 0.225 | 0.268 | 0.532 | 0.825 |
| Nc1nc2c(ncn2COCCO)c(=O)[nH]1 [Aciclovir] | -0.209 | 0.0446 | 0.268 | -0.513 |
| COc1ccc2cc(OCC3(C(=O)O)CN(C(=O)c4ccc(F)cc4)C3)ccc2c1 | 0.404 | 1.35 | 0.812 | 2.71 |
| Cc1ccc(S(=O)(=O)OCC(=O)Nc2ccc(C(=O)O)c(O)c2)cc1 | 0.175 | 0.186 | -0.235 | 0.168 |
| CC(C)(C)C(=O)Oc1ccc(S(=O)(=O)Nc2ccccc2C(=O)NCC(=O)O)cc1 [Sivelestat (ONO-5046)] | 0.718 | 0.35 | 0.587 | -0.619 |
| CC1=C(C(=O)O)N2C(=O)[C@@H](NC(=O)[C@H](N)C3=CCC=CC3)[C@H]2SC1 [Cefradine] | 0.26 | 1.2 | 1.03 | 0.512 |
| O=C(NCCO)c1cccc(-c2cc(Nc3ccc(OC(F)(F)F)cc3)ncn2)c1 | 0.2 | 0.785 | 0.362 | 0.175 |
| CC(C)(CO)c1cc2cc(NC(=O)C3(c4ccc5c(c4)OC(F)(F)O5)CC3)c(F)cc2n1C[C@@H](O)CO | 2.08 | -0.176 | 0.0219 | 2.31 |
| NC(=O)[C@@H]1CSSCCC(=O)N[C@@H](CCCCN=C(N)N)C(=O)NCC(=O)N[C@@H](CC(=O)O)C(=O)N[C@@H](Cc2c[nH]c3ccccc23)C(=O)N2CCC[C@H]2C(=O)N1 [Eptifibatide Acetate] ([Mpa][hArg]GDWPC-NH2; disulfide 1-7) | -0.00379 | -0.448 | -0.52 | 0.84 |
| Cc1onc(-c2ccccc2)c1-c1ccc(S(N)(=O)=O)cc1 [Valdecoxib] | 0.694 | -0.282 | 0.254 | 1.03 |
| CC(C)(C)c1[nH]cnc1/C=c1\[nH]c(=O)/c(=C/c2ccccc2)[nH]c1=O [Plinabulin (NPI-2358)] | -5.71 | -3.11 | -0.858 | 0.636 |
| O=C(Cc1ccccc1)Nc1nnc(CCSCCc2nnc(NC(=O)Cc3ccccc3)s2)s1 | 0.313 | 1.15 | 0.0258 | 0.165 |
| COc1cccc2c1C(=O)c1c(O)c3c(c(O)c1C2=O)C[C@@](O)(C(=O)CO)C[C@@H]3O[C@H]1C[C@H](N)[C@H](O[C@@H]2CCCCO2)[C@H](C)O1 [Pirarubicin] | -6.52 | -1.61 | -0.0453 | -1.03 |

Structural class: the entries above containing an aryl methoxy group

| Structure (SMILES) | nucleus area z-score [1] | total neurite length per nucleus (z-score) [2] | nucleus roundness z-score [3] | KCl-induced FOS+/EGR-1+ double-positive nuclei fraction z-score [4] |
| --- | --- | --- | --- | --- |
| COc1ccc2cc(OCC3(C(=O)O)CN(C(=O)c4ccc(F)cc4)C3)ccc2c1 | 0.404 | 1.35 | 0.812 | 2.71 |
| COc1cccc2c1C(=O)c1c(O)c3c(c(O)c1C2=O)C[C@@](O)(C(=O)CO)C[C@@H]3O[C@H]1C[C@H](N)[C@H](O[C@@H]2CCCCO2)[C@H](C)O1 [Pirarubicin] | -6.52 | -1.61 | -0.0453 | -1.03 |

Further compounds:

| Structure (SMILES) | nucleus area z-score [1] | total neurite length per nucleus (z-score) [2] | nucleus roundness z-score [3] | KCl-induced FOS+/EGR-1+ double-positive nuclei fraction z-score [4] |
| --- | --- | --- | --- | --- |
| CCOCC(O)COc1ccc(NC(=O)CC[S+](C)C)cc1 (stereo not drawn) [Suplatast Tosylate] | 0.244 | -0.0826 | 0.48 | -0.0978 |
| N=C(N)NC(=O)c1nc(Cl)c(N)nc1N [Amiloride HCl dihydrate] | 0.0926 | 2.81 | -0.531 | -0.0351 |
| C=CC1=C(C(=O)O)N2C(=O)[C@@H](NC(=O)/C(=N\OCC(=O)O)c3csc(N)n3)[C@H]2SC1 [Cefixime] | 0.113 | -0.114 | 0.167 | 0.929 |
| Cc1cc(C2CCCCC2)n(O)c(=O)c1 [Ciclopirox] | -15.4 | -6.26 | -5.49 | -1.82 |
| Cn1c(=O)cc(N2CCC[C@@H](N)C2)n(Cc2cc(F)ccc2C#N)c1=O [Trelagliptin] | 0.858 | 0.108 | 0.249 | 0.919 |
| CC1=NN(c2ccc(C)c(C)c2)C(=O)/C1=N\Nc1cccc(-c2cccc(C(=O)O)c2)c1O [Eltrombopag Olamine] | 0.401 | -0.49 | -0.00842 | -0.219 |
| O=C(COc1ccc(C(=O)c2ccccc2)cc1)NC1CCN(Cc2ccccc2)CC1 [AdipoRon] | 1.15 | -0.159 | 0.555 | 0.96 |
| Nc1c(Br)cc(Br)cc1CN[C@H]1CC[C@H](O)CC1 [Ambroxol HCl] | 0.642 | -1.57 | -1.23 | 0.348 |
| CCN(CCCc1ccccc1)CCCc1ccccc1 [Alverine Citrate] | -2.24 | -1.29 | -0.264 | -0.103 |
| Fc1ccc(C(c2ccc(F)cc2)N2CCN(C/C=C/c3ccccc3)CC2)cc1 [Flunarizine 2HCl] | -2.03 | -1.89 | -3.97 | -0.139 |
| CC(C)CC(NC(=O)C(Cc1ccccc1)NC(=O)C(CCC(N)=O)NC(=O)C(Cc1ccc(O)cc1)NC(=O)C(C)NC(=O)CNC(=O)C(CCCCN)NC(=O)C(Cc1c[nH]c2ccccc12)NC(=O)C(NC(=O)C(Cc1c[nH]c2ccccc12)NC(=O)C(CCCCN)NC(=O)CNC(=O)C(CC(N)=O)NC(=O)C(CCC(=O)O)NC(=O)C(Cc1c[nH]c2ccccc12)NC(=O)C(NC(=O)C(Cc1c[nH]c2ccccc12)NC(=O)C(CO)NC(=O)CNC(=O)C1CCCN1C(=O)C(Cc1c[nH]c2ccccc12)NC(=O)C(CCC(N)=O)NC(=O)C(Cc1ccccc1)NC(=O)CNC(=O)C(N)Cc1c[nH]cn1)C(C)O)C(C)O)C(=O)NC(CCCCN)C(=O)NCC(=O)NCC(=O)NCC(=O)NCC(=O)NC(CO)C(=O)NC(CCCNC(=N)N)C(=O)NC(CCCNC(=N)N)C(=O)NC(CCCNC(=N)N)C(=O)NC(CCCNC(=N)N)C(=O)NC(CCCNC(=N)N)C(=O)NC(CCCNC(=N)N)C(=O)NC(CCCNC(=N)N)C(=O)NC(CCCNC(=N)N)C(=O)NC(CCCNC(=N)N)C(=O)O (stereo not drawn) (H-HGFQWPGSWTWENGKWTWKGAYQFLKGGGGSRRRRRRRRR-OH; configuration not given here) | -4.85 | 0.0677 | -2.18 | 0.09 |
| O=C(/C=C/C=C/c1ccc2c(c1)OCO2)N1CCCCC1 [Piperine] | 0.475 | 1.3 | 1.05 | 0.0901 |
| C=CC[C@@H]1/C=C(\C)C[C@H](C)C[C@H](OC)[C@H]2O[C@@](O)(C(=O)C(=O)N3CCCC[C@H]3C(=O)O[C@H](/C(C)=C/[C@@H]3CC[C@@H](O)[C@H](OC)C3)[C@H](C)[C@@H](O)CC1=O)[C@H](C)C[C@@H]2OC [Tacrolimus (FK506)] | -0.583 | 0.066 | -0.318 | 0.295 |
| CC(C)NCCCn1c(Sc2cc3c(cc2I)OCO3)nc2c(N)ncnc21 | -8.93 | -4.81 | -5.32 | 2.31 |
| CC(=O)OCC(=O)[C@@]12OC(C)(C)O[C@@H]1C[C@H]1[C@@H]3C[C@H](F)C4=CC(=O)C=C[C@]4(C)[C@@]3(F)[C@@H](O)C[C@@]12C [Fluocinonide] | -0.117 | 1.2 | -0.0109 | 0.993 |
| COc1cc(Nc2ncc3c(n2)-c2ccc(Cl)cc2C(c2c(F)cccc2OC)=NC3)ccc1C(=O)O [Alisertib (MLN8237)] | -6.36 | -0.946 | -2.38 | -0.0482 |
| Cc1coc2c1C(=O)C(=O)c1c-2ccc2c1CCCC2(C)C [Tanshinone IIA] | -0.0564 | 0.0321 | 0.704 | 0.157 |
| COc1cc(NC(C)CCCN)c2ncccc2c1 (stereo not drawn) [Primaquine Diphosphate] | -1.01 | -0.34 | 0.678 | 0.558 |
| C[C@H]1COC2(CCN(c3nc(=O)c4cc(C(F)(F)F)cc([N+](=O)[O-])c4s3)CC2)O1 (racemic) [BTZ043 Racemate] | 0.722 | 0.23 | -0.0412 | 0.185 |
| Cc1c(-c2ccnn2C)cc(C(=O)NCc2ccc(S(C)(=O)=O)cn2)c(=O)n1-c1cccc(C(F)(F)F)c1 [Alvelestat (AZD9668)] | -0.0245 | 1.17 | 1.33 | 0.787 |
| O=C(O)CCCc1ccccc1 [Sodium Phenylbutyrate] | 0.164 | 0.0222 | 0.126 | 0.614 |
| COc1ccc(C(Cl)=C(c2ccc(OC)cc2)c2ccc(OC)cc2)cc1 [Chlorotrianisene] | 1.29 | -0.582 | -0.369 | -0.0486 |
| C[C@@H]1O[C@@H](OC[C@H]2O[C@@H](Oc3c(-c4ccc(O)c(O)c4)oc4cc(O)cc(O)c4c3=O)[C@H](O)[C@@H](O)[C@@H]2O)[C@H](O)[C@H](O)[C@H]1O [Rutin] | -0.267 | 0.41 | 0.199 | 0.779 |
